From patent publication US20180094274A1 (BOARD OF TRUSTEES OF MICHIGAN STATE UNIVERSITY, published 2018)
Results are given in words; binding and its absence hold for the method and conditions named. Some results given as binding are weak or reduced against the parent protein; the word gives no strength. For some assays here: Where a sequence is shown, tags or fusion partners need not be part of it.

Key:
[1] = target: full length AtWRI1 (bait fusion, yeast two-hybrid) (Arabidopsis thaliana) (UniProt Q6X5Y6); assay: yeast two-hybrid
[2] = target: AtWRI1^1-92 (yeast two-hybrid) (Arabidopsis thaliana) (UniProt Q6X5Y6); assay: yeast two-hybrid with truncated AtWRI1 variants
[3] = target: full length AtWRI1 (bait fusion, yeast two-hybrid) (Arabidopsis thaliana) (UniProt Q6X5Y6); assay: yeast two-hybrid (AtWRI1 bait, 14-3-3 prey)
[4] = target: full length AtWRI1 (bait fusion, yeast two-hybrid) (Arabidopsis thaliana) (UniProt Q6X5Y6); assay: yeast two-hybrid, growth on -Leu/-Trp/-His
nYFP-AtWRI1 = target: T1, nYFP-AtWRI1 (Arabidopsis thaliana, UniProt Q6X5Y6 1-430); assay: BiFC, transient expression in N. benthamiana leaves (data not shown)
T1 construct: BiFC construct transiently produced in N. benthamiana leaves; also called 35S:nYFP-AtWRI1; not shown: N-terminal half of YFP from the BiFC vector
T1 sequence: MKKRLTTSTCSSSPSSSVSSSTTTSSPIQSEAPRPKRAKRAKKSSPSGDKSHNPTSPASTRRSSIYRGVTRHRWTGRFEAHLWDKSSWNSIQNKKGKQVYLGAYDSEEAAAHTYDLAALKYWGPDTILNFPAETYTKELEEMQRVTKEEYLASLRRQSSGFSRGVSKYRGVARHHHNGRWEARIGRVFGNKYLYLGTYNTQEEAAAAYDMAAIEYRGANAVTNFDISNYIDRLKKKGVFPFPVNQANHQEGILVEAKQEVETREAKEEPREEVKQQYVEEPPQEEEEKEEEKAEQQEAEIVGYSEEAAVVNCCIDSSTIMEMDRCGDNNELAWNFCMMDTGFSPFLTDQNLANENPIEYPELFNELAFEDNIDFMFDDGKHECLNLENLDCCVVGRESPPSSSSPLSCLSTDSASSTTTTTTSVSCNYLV

B1: 14-3-3υ (yeast two-hybrid) (protein, Arabidopsis, UniProt P42645 1-268, looked up, not shown: large carriers)
chain: MSSDSSREENVYLAKLAEQAERYEEMVEFMEKVAKTVETEELTVEERNLLSVAYKNVIGARRASWRIISSIEQKEDSRGNSDHVSIIKDYRGKIETELSKICDGILNLLEAHLIPAASLAESKVFYLKMKGDYHRYLAEFKTGAERKEAAESTLVAYKSAQDIALADLAPTHPIRLGLALNFSVFYYEILNSSDRACSLAKQAFDEAISELDTLGEESYKDSTLIMQLLRDNLTLWTSDLNDEAGDDIKEAPKEVQKVDEQAQPPPSQ
binding [1]: binds

B2: 14-3-3κ (prey fusion, yeast two-hybrid) (protein, not shown: large carriers)
chain: MATTLSRDQYVYMAKLAEQAERYEEMVQFMEQLVSGATPAGELTVEERNLLSVAYKNVIGSLRAAWRIVSSIEQKEESRKNEEHVSLVKDYRSKVETELSSICSGILRLLDSHLIPSATASESKVFYLKMKGDYHRYLAEFKSGDERKTAAEDTMIAYKAAQDVAVADLAPTHPIRLGLALNFSVFYYEILNSSEKACSMAKQAFEEAIAELDTLGEESYKDSTLIMQLLRDNLTLWTSDMQVCPILYFHIQLHHQKLAY
binding [2]: binds | binding [3]: binds | binding [4]: binds

B3: cYFP-14-3-3κ (protein, not shown: large carriers)
chain: B2 chain
binding (nYFP-AtWRI1): binds
